Laboratory results as given in PubChem BioAssay AID504834 (National Center for Advancing Translational Sciences (NCATS), 2011).
In all, about 320,000 compounds went through this assay and about 22,000 (6.9%) were called active. Inconclusive results, whose numbers are uncertain, are shown with a selection of clear calls. Calls come from the whole dose curve; as a rule, active = well fitted inhibition curve with a large enough effect; inconclusive = small, poorly fitted or top-dose-only effect, or another doubt; inactive = no such curve, though single readings can be large or run the other way. Potencies beside an inconclusive call are fits to weak or partial responses and may not hold up.

assay: Primary qHTS for delayed death inhibitors of the malarial parasite plastid, 96 hour incubation; details: P. falciparum luciferase reporter growth; series mostly up to 28.7 µM
In short: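 Delayed-death screen, second-generation endpoint: infected erythrocytes, 2% hematocrit, 0.05% parasitemia final; 96 hours at 37 C, 5% CO2; luciferase detection reagent; luminescence decrease equals reduced growth.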
Potency is the fitted concentration of half-maximal effect.

Structure (SMILES) | Potency
COCC(=O)OCC(=O)c1cc(C)n(-c2ccc(Br)cc2)c1C | inconclusive: 18.5 µM [inhibitor, single point]
CCOC(=O)C1=C(C)C(c2cccc(Oc3ccccc3)c2)NC(=S)N1 (stereo not given) | inconclusive: 18.5 µM [inhibitor, single point]
COc1ccc(N=C2S/C(=C\c3cccs3)C(=O)N2CC(C)C)cc1 | active: 3.7 µM
COc1ccc2cc(C(=O)N3CCOCC3)sc(=O)c2c1OC | inconclusive: 11.7 µM [inhibitor, partial curve, poor fit]
CN(C1=C(NC(=O)c2ccc(Cl)cc2)C(=O)c2ccccc2C1=O)c1ccccc1 | inconclusive: 0.657 µM [inhibitor, full curve, poor fit]
CCCNC(=O)C(Cc1cccc(C#N)c1)NC(=O)c1cccc([N+](=O)[O-])c1 (stereo not given) | inconclusive: 7.38 µM [inhibitor, partial curve]
S=c1[nH]nc(-c2ccccc2)n1C1C=CCCC1 (stereo not given) | inconclusive: 10.4 µM [inhibitor, single point]
CC1(C)CC2CC(C)(CN2C(=O)COC(=O)c2ccc(Cl)c(N)c2)C1 (stereo not given) | inactive
O=C(CSc1nnc(-c2ccccc2)o1)N1CCCCC1 | inconclusive: 11.7 µM [inhibitor, single point]
CN(CC(=O)Nc1cccc(F)c1)C(=O)c1cc([N+](=O)[O-])ccc1N1CCCCC1 | inconclusive: 18.5 µM [inhibitor, single point]
O=C(COC(=O)c1cccc2c1C(=O)c1ccccc1C2=O)NC1CCCCC1 | inconclusive: 14.7 µM [inhibitor, single point]
COc1cc(-c2noc(C)c2C#Cc2nccn2C)cc(OC)c1OC | inconclusive: 7.38 µM [inhibitor, partial curve]
Cc1cc(SCC(=O)N2CCCC2)nc2ccccc12 | inconclusive: 18.5 µM [inhibitor, single point]
O=C(/C=C/c1ccccc1Cl)N(Cc1ccc(Cl)cc1)C1CCS(=O)(=O)C1 (stereo not given) | inconclusive: 9.28 µM [inhibitor, single point]
Cc1oc(-c2ccc(Cl)cc2)cc1-c1nn2c(-c3ccoc3C)nnc2s1 | inconclusive: 18.5 µM [inhibitor, single point]
Cc1cc(C)n(CC(O)Cn2c3ccccc3c3ccccc32)c(=O)n1 (stereo not given) | inconclusive: 18.5 µM [inhibitor, single point]
Cc1ccc(-c2csc(NC(=O)c3cccc([N+](=O)[O-])c3)n2)cc1 | inactive
Cc1cc(C)cc(Nc2nc3ccc(C)cc3n3cnnc23)c1 | inactive
Cc1ccc(NC(=O)c2ccccc2OCC(=O)Nc2ccccc2F)cc1S(=O)(=O)N(C)C | active: 7.38 µM
CC(=O)Nc1nnc(SCC(=O)Nc2ccc3c(c2)OCCO3)s1 | inconclusive: 0.117 µM [inhibitor, partial curve, poor fit]
O=C(CSc1oc(-c2cccs2)nc1S(=O)(=O)c1ccc(F)cc1)NCC1CCCO1 (stereo not given) | inconclusive: 18.5 µM [inhibitor, single point]
CCOC(=O)c1c(-c2ccc(-c3ccccc3)cc2)csc1NC(=O)CCC(=O)O | inconclusive: 18.5 µM [inhibitor, single point]
CC(Sc1nnc(-c2cccnc2)o1)C(=O)NC1CCCCC1 (stereo not given) | inactive
Cn1c(=O)c(C(=O)COc2ccc(F)cc2Cl)c(N)n(Cc2ccccc2)c1=O | inconclusive: 16.5 µM [inhibitor, single point]

Structure (SMILES) | Potency
CN1CCN(C2=Cc3ccc(Cl)cc3Sc3ccc(F)cc32)CC1 | active: 11.7 µM
NS(=O)(=O)c1ccc(CCNC(=O)CSc2nc3ccsc3c(=O)n2CC(=O)O)cc1 | active: 1.17 µM
CCCCn1c(O)c(C(CC)=NC(C)c2ccccc2)c(=O)[nH]c1=O (stereo not given) | inconclusive: 11.7 µM [inhibitor, partial curve, poor fit]
COc1cc(Cl)c(CN2CCCC(CO)(Cc3ccccc3)C2)cc1OC (stereo not given) | inconclusive: 10.4 µM [inhibitor, single point]
CCCCC(=O)N/N=C/c1ccc(N2CCOCC2)c([N+](=O)[O-])c1 | inconclusive: 9.28 µM [inhibitor, partial curve]
CCCCn1c(SCC(=O)N2CCOCC2)nc2c1c(=O)n(C)c(=O)n2C | active: 11.7 µM
CN(C(=O)CSc1nnc(-c2cccc(F)c2)n1N)C1CCS(=O)(=O)C1 (stereo not given) | inconclusive: 4.15 µM [inhibitor, single point]
O=C(Nc1nc2ccccc2n1CCN1CCCCC1)c1ccco1 | inconclusive: 18.5 µM [inhibitor, single point]
N#CCSc1ncnc2ccccc12 | inactive
Cn1c(N2CCN(C(c3ccccc3)c3ccccc3)CC2)nc2c1c(=O)[nH]c(=O)n2C | inconclusive: 10.4 µM [inhibitor, partial curve, poor fit]
COc1ccc(-c2cc(=O)[nH]c(N3CCN(Cc4ccccc4)CC3)n2)cc1 | inconclusive: 18.5 µM [inhibitor, single point]
Cc1ccc(C)c(N2CCN(C(=O)C3CCN(S(=O)(=O)c4cccc5nsnc45)CC3)CC2)c1 | inactive
COc1cccc(-c2nc(N3CC(C)CC(C)C3)c3ccccc3n2)c1O (stereo not given) | active: 13.1 µM
O=C(N/N=C/c1cc([N+](=O)[O-])ccc1Cl)c1cc(-c2ccccc2)nc2ccccc12 | inconclusive: 13.1 µM [inhibitor, single point]
Cc1cc(OCCOc2cccc3cccnc23)cc(C)c1Cl | inconclusive: 18.5 µM [inhibitor, single point]
COc1ccc(CCNC(=O)c2cc3c(=O)n4cccc(C)c4nc3n(Cc3ccco3)c2=N)cc1OC | active: 1.65 µM
COc1cc(NC(=O)c2nccnc2N)cc(C(=O)Nc2cccc(C(F)(F)F)c2)c1 | inconclusive: 18.5 µM [inhibitor, single point]
O=S(=O)(Cc1ccc(Cl)cc1)Nc1ccc(Cl)cn1 | inactive
Cc1cc(C)nc(N/N=C/C2=C(N3CCOCC3)C(=C/c3ccccc3)/CC2)n1 | inconclusive: 11.7 µM [inhibitor, single point]
CN(C)/C=C/C(=O)c1ccc(-n2cccc2)cc1 | inactive
CN(C(=O)COC(=O)/C=C/c1cccs1)c1c(N)n(Cc2ccccc2)c(=O)[nH]c1=O | inactive
O=C1/C(=C/c2cccnc2)SC(=S)N1NS(=O)(=O)c1ccccc1 | inconclusive: 18.5 µM [inhibitor, single point]
COCCNC(=O)C(c1ccc(C)cc1)N(C(=O)CCC(=O)Nc1ccccn1)c1cccc(C)c1 (stereo not given) | inactive
Cn1cnnc1SCC(=O)NNC(=O)c1ccc(Cl)cc1 | inactive

Structure (SMILES) | Potency
C/C(CC(=O)NC1CCCCC1)=N\NC(=O)c1ccccn1 | inactive
CC(C)(C)c1ccc(OCCN2CCCC2)cc1 | inconclusive: 7.38 µM [inhibitor, partial curve]
CC(/C=N/NC(=O)c1cnccn1)=C\c1ccco1 | inactive
N/C(=N/OC(=O)c1ccccc1Cl)c1ncc([N+](=O)[O-])s1 | inconclusive: 18.5 µM [inhibitor, single point]
CCC(Sc1nc(N)cc(=O)[nH]1)C(=O)Nc1cc(C)on1 (stereo not given) | inactive
Cc1c(C(=O)N2CCN(S(=O)(=O)c3ccccc3)CC2)oc2ccccc12 | inconclusive: 11.7 µM [inhibitor, single point]
Cc1cc(NC(=O)c2cc(C(C)C)on2)no1 | inconclusive: 18.5 µM [inhibitor, single point]
Cc1ccc(C(=O)CSc2nnc(CNc3nc(-c4ccccc4)cs3)n2C)cc1 | active: 13.1 µM
O=C(CSc1nc2ccccc2[nH]1)NC1CCCC1 | inconclusive: 0.262 µM [inhibitor, partial curve, poor fit]
O=c1ccc2cc(S(=O)(=O)NCc3ccccc3)ccc2[nH]1 | inactive
COc1cccc(C(=O)Cn2c(N3CCCCC3)nc3c2c(=O)n(C)c(=O)n3C)c1 | inconclusive: 13.1 µM [inhibitor, single point]
CCCC(NC(=O)COc1cc2c(c3oc(=O)cc(C)c13)CCC(C)(C)O2)C(=O)O (stereo not given) | inconclusive: 18.5 µM [inhibitor, partial curve, poor fit]
c1cnc2c(OCc3nc4ccccc4[nH]3)cccc2c1 | active: 8.28 µM
COC(=O)CSc1nnc(CNC(=O)c2ccc(OC)c(OC)c2)n1C | inactive
CN=c1scc(-c2ccc(OC)cc2)n1/N=C(\C)c1cccnc1 | inconclusive: 18.5 µM [inhibitor, single point]
CCc1cccc(NC(=O)C2CCCN(S(=O)(=O)c3ccc4[nH]c(=O)ccc4c3)C2)c1 (stereo not given) | inactive
Cc1nn(-c2ccccc2)c2c1C(=O)N(Cc1ccccc1)C(=O)C(C)(C)C2 | inconclusive: 18.5 µM [inhibitor, single point]
C=C1SC(Nc2c(C)cccc2C)=NC12CCCCC2 | inconclusive: 4.15 µM [inhibitor, single point]
COc1ccc(CCN(C)C2CCCN(C(=O)c3ccnn3C)C2)cc1OC (stereo not given) | inconclusive: 1.17 µM [inhibitor, partial curve, poor fit]
Oc1ccc2ccccc2c1CN1CC=C(c2ccccc2)CC1 | inconclusive: 4.15 µM [inhibitor, single point]
NC(=O)C1CCN(C(=O)C2CCC(=O)N(C3CCCCCC3)C2)CC1 (stereo not given) | inconclusive: 18.5 µM [inhibitor, single point]
COc1ccc(/C=C2/N=C(SC3CCOC3=O)N(c3cccc(OC)c3)C2=O)cc1 (stereo not given) | inconclusive: 13.1 µM [inhibitor, single point]

18 compounds from above, ordered by length of the SMILES, falling.
Structure (SMILES) | Potency
CCc1cccc(NC(=O)C2CCCN(S(=O)(=O)c3ccc4[nH]c(=O)ccc4c3)C2)c1 (stereo not given) | inactive
CCCC(NC(=O)COc1cc2c(c3oc(=O)cc(C)c13)CCC(C)(C)O2)C(=O)O (stereo not given) | inconclusive: 18.5 µM [inhibitor, partial curve, poor fit]
COc1ccc(/C=C2/N=C(SC3CCOC3=O)N(c3cccc(OC)c3)C2=O)cc1 (stereo not given) | inconclusive: 13.1 µM [inhibitor, single point]
Cc1nn(-c2ccccc2)c2c1C(=O)N(Cc1ccccc1)C(=O)C(C)(C)C2 | inconclusive: 18.5 µM [inhibitor, single point]
Cc1ccc(C(=O)CSc2nnc(CNc3nc(-c4ccccc4)cs3)n2C)cc1 | active: 13.1 µM
N/C(=N/OC(=O)c1ccccc1Cl)c1ncc([N+](=O)[O-])s1 | inconclusive: 18.5 µM [inhibitor, single point]
NC(=O)C1CCN(C(=O)C2CCC(=O)N(C3CCCCCC3)C2)CC1 (stereo not given) | inconclusive: 18.5 µM [inhibitor, single point]
COc1ccc(CCN(C)C2CCCN(C(=O)c3ccnn3C)C2)cc1OC (stereo not given) | inconclusive: 1.17 µM [inhibitor, partial curve, poor fit]
COC(=O)CSc1nnc(CNC(=O)c2ccc(OC)c(OC)c2)n1C | inactive
CN=c1scc(-c2ccc(OC)cc2)n1/N=C(\C)c1cccnc1 | inconclusive: 18.5 µM [inhibitor, single point]
C/C(CC(=O)NC1CCCCC1)=N\NC(=O)c1ccccn1 | inactive
Oc1ccc2ccccc2c1CN1CC=C(c2ccccc2)CC1 | inconclusive: 4.15 µM [inhibitor, single point]
c1cnc2c(OCc3nc4ccccc4[nH]3)cccc2c1 | active: 8.28 µM
CC(/C=N/NC(=O)c1cnccn1)=C\c1ccco1 | inactive
C=C1SC(Nc2c(C)cccc2C)=NC12CCCCC2 | inconclusive: 4.15 µM [inhibitor, single point]
O=C(CSc1nc2ccccc2[nH]1)NC1CCCC1 | inconclusive: 0.262 µM [inhibitor, partial curve, poor fit]
Cc1cc(NC(=O)c2cc(C(C)C)on2)no1 | inconclusive: 18.5 µM [inhibitor, single point]
CC(C)(C)c1ccc(OCCN2CCCC2)cc1 | inconclusive: 7.38 µM [inhibitor, partial curve]
